In PubChem BioAssay AID248 (DTP/NCI, 2004):
The list is a part of this screen's results and no random one: it gathers tests that were run many times, whatever their T/C, doses with no T/C, and many T/C values between a quarter and a half above the control. Other doses and runs of a compound stand elsewhere. T/C: endpoint of the treated group in % of that of the vehicle group. Some doses have a count of surviving animals in place of a T/C: the source holds a T/C of zero for them, seemingly a mark for toxic or unscored doses. Some survivor counts are full or nearly so, which does not show that the dose was tolerated: survival well below the control is almost never listed, so the zero probably covers shortened survival too. Counts of survivors are from the toxicity check (mostly the fifth day) where no day follows; animals may have died later. Schedules are NCI's codes, read here as Q, the interval in days (D) or hours (H), X, the number of doses. Some entries hold several experiments; the results are listed from low to high. Some schedule codes hold Z or #, which are not explained here. For survival time, this PubChem deposit counts one and a half times the control or more as active, and values a quarter to a half above the control carry no call in these data; other NCI protocols may use other cut-offs. Some T/C values carry the count of animals alive at the toxicity check (mostly the fifth day); without a count, all were alive then.

System: L1210 leukemia ip in BDF1 mice, survival T/C
Assay: NCI In Vivo Anticancer Drug Screen. Data for tumor model L1210 Leukemia (intraperitoneal) in B6D2F1 (BDF1) mice
Settings: T/C endpoint: mean survival time, higher T/C = longer survival
[1] = dose: 50.0 mg/kg/injection, schedule: Q01DX009 (ip), vehicle: saline
[2] = dose: 200.0 mg/kg/injection, schedule: Q01DX009 (ip), vehicle: saline
[3] = dose: 400.0 mg/kg/injection, schedule: Q01DX001 (ip), vehicle: saline
[4] = dose: 400.0 mg/kg/injection, schedule: Q01DX009 (ip), vehicle: saline
[5] = dose: 400.0 mg/kg/injection, schedule: Q01DX001 (ip), vehicle: carboxymethylcellulose (CMC)
[6] = dose: 400.0 mg/kg/injection, schedule: Q01DX009 (ip), vehicle: saline with Tween-80

With `CS(=O)(=O)OCCN(CCOS(C)(=O)=O)c1ccc(/C=N/Nc2ncnc3nc[nH]c23)cc1` the T/C (dose: 22.0 mg/kg/injection, schedule: Q01DX009 (ip), vehicle: other) was 136 % of control, the T/C (dose: 25.0 mg/kg/injection, schedule: Q01DX009 (ip), vehicle: saline) was 130 % of control and the T/C (dose: 33.0 mg/kg/injection, schedule: Q01DX009 (ip), vehicle: other) was 130 % of control. The T/C (dose: 50.0 mg/kg/injection, schedule: Q01DX009 (ip), vehicle: other) was 138 % of control, the T/C [1] was 136 % of control and the T/C (dose: 75.0 mg/kg/injection, schedule: Q01DX009 (ip), vehicle: other) was 144 % of control. For the same compound, the T/C (dose: 100.0 mg/kg/injection, schedule: Q01DX001 (ip), vehicle: other) was 126 % of control, the T/C (dose: 200.0 mg/kg/injection, schedule: Q01DX001 (ip), vehicle: other) was 132 % of control and the survivor count [2] was 0 of 6. The T/C (dose: 400.0 mg/kg/injection, schedule: Q01DX001 (ip), vehicle: other) was 126 % of control.
In the case of `O=C1C(c2ccccc2)=C(c2ccccc2)c2c1c(-c1ccccc1)c(-c1ccccc1)c(-c1ccccc1)c2-c1ccccc1`, the survivor count (dose: 50.0 mg/kg/injection, schedule: Q01DX001 (ip), vehicle: saline with Tween-80) is reported as 3 of 3 and the survivor count (dose: 100.0 mg/kg/injection, schedule: Q01DX001 (ip), vehicle: saline with Tween-80) is reported as 3 of 3.
`OCCCCCCCCCCCC[n+]1ccccc1` was tested, and the survivor count (dose: 175.0 mg/kg/injection, schedule: Q01DX001 (ip), vehicle: saline) was 0 of 6 and the survivor count (dose: 350.0 mg/kg/injection, schedule: Q01DX001 (ip), vehicle: saline) was 0 of 6.
`NN=O` was tested, and the survivor count [3] was 1 of 3.
For `C[CH2][Sn]([CH2]C)([CH2]C)[S]Cc1ccccc1`, the survivor count (dose: 100.0 mg/kg/injection, schedule: Q04DX002 (ip), vehicle: saline with Tween-80) was 0 of 3, the survivor count (dose: 200.0 mg/kg/injection, schedule: Q04DX002 (ip), vehicle: saline with Tween-80) was 0 of 3 and the survivor count (dose: 400.0 mg/kg/injection, schedule: Q04DX002 (ip), vehicle: saline with Tween-80) was 0 of 3.
For `COC1c2cnc(C)n2C=CN1C(C)=O` (stereo not given), the survivor count [2] was 2 of 6 and the survivor count (dose: 400.0 mg/kg/injection, schedule: Q04DX003 (ip), vehicle: saline) was 1 of 6.
`O=C(NCCCl)NC1CCSc2ccccc21` (stereo not given) was tested, and the survivor count (dose: 400.0 mg/kg/injection, schedule: Q04DX003 (ip), vehicle: saline with Tween-80) was 5 of 6.
`CCN=C(c1ccc(NC(=O)c2ccc(C(=O)Nc3ccc(C(=NCC)N(CC)CC)cc3)c(Cl)c2)cc1)N(CC)CC` was tested, and the survivor count (dose: 1.87 mg/kg/injection, schedule: Q01DX Z (ip), vehicle: carboxymethylcellulose (CMC)) was 2 of 6, the survivor count (dose: 3.75 mg/kg/injection, schedule: Q01DX Z (ip), vehicle: carboxymethylcellulose (CMC)) was 0 of 6 and the survivor count (dose: 7.5 mg/kg/injection, schedule: Q01DX Z (ip), vehicle: carboxymethylcellulose (CMC)) was 0 of 6. The survivor count (dose: 15.0 mg/kg/injection, schedule: Q01DX Z (ip), vehicle: carboxymethylcellulose (CMC)) was 0 of 6, the survivor count (dose: 30.0 mg/kg/injection, schedule: Q01DX Z (ip), vehicle: carboxymethylcellulose (CMC)) was 0 of 6 and the survivor count (dose: 60.0 mg/kg/injection, schedule: Q01DX Z (ip), vehicle: carboxymethylcellulose (CMC)) was 0 of 6. The survivor count (dose: 120.0 mg/kg/injection, schedule: Q01DX Z (ip), vehicle: carboxymethylcellulose (CMC)) was 0 of 6.
`COC1OCC(O)C(NC(=O)N(C)N=O)C1O` (stereo not given) was tested, and the T/C (dose: 12.5 mg/kg/injection, schedule: Q01DX009 (ip), vehicle: saline) was 135 % of control, the T/C (dose: 44.0 mg/kg/injection, schedule: Q04DX003 (ip), vehicle: saline) was 126 % of control and the T/C [1] was 144 % of control. For the same compound, the T/C (dose: 66.0 mg/kg/injection, schedule: Q04DX003 (ip), vehicle: saline) was 126 [5 of 6 alive], 135, 138 % of control, the T/C (dose: 100.0 mg/kg/injection, schedule: Q04DX003 (ip), vehicle: saline) was 136 and 145 % of control and the T/C (dose: 150.0 mg/kg/injection, schedule: Q01DX009 (ip), vehicle: citric acid) was 144 % of control. The T/C [2] was 134 % of control, the survivor count (dose: 300.0 mg/kg/injection, schedule: Q01DX009 (ip), vehicle: citric acid) was 7 of 10 and the survivor count [4] was 5 of 6.
For `CC(C)=CCC/C(C)=C\C=N\NC(N)=S`, the survivor count [5] was 0 of 4.
`COC1OC(COC(C)=O)C(OC(C)=O)C(OC(C)=O)[CH]1[Hg][O]C(C)=O` (stereo not given) was tested, and the survivor count (dose: 100.0 mg/kg/injection, schedule: Q04DX003 (ip), vehicle: saline sonified) was 0 of 6, the survivor count (dose: 200.0 mg/kg/injection, schedule: Q04DX003 (ip), vehicle: saline sonified) was 0 of 6 and the survivor count (dose: 400.0 mg/kg/injection, schedule: Q04DX003 (ip), vehicle: saline sonified) was 0 of 6.
`COC(=O)c1ccc(N(C)CCC(=O)CBr)cc1` was tested, and the survivor count (dose: 200.0 mg/kg/injection, schedule: Q01DX001 (ip), vehicle: saline) was 0 of 4 and the survivor count [3] was 0 of 4.
With `CC(/C=C/c1ccc(O)cc1)=N\O` the survivor count [6] was 0 of 6.
`Cc1c(C(=O)OCCCl)c(=O)n(-c2ccccc2)n1C` was tested, and the survivor count [3] was 2 of 4.
In the case of `NCc1ccccc1F`, the survivor count [4] is reported as 5 of 6.
In the case of `COc1ccc(COC(=O)Nc2cccc(Cl)c2C)cc1`, the survivor count [6] is reported as 6 of 6.
For `Cc1cc(N(CCOS(C)(=O)=O)CCOS(C)(=O)=O)ccc1C=Nc1cccc(Cl)c1`, the survivor count (dose: 200.0 mg/kg/injection, schedule: Q04DX003 (ip), vehicle: Klucel (hydroxypropylcellulose) (HPC)) was 6 of 6 and the survivor count (dose: 400.0 mg/kg/injection, schedule: Q04DX003 (ip), vehicle: Klucel (hydroxypropylcellulose) (HPC)) was 6 of 6.
For `O=C(O)c1cn(C2CCCCC2)c(=O)[nH]c1=O`, the survivor count (dose: 100.0 mg/kg/injection, schedule: Q01DX Z (ip), vehicle: methylcellulose (MC)) was 4 of 6 and the survivor count (dose: 200.0 mg/kg/injection, schedule: Q01DX Z (ip), vehicle: methylcellulose (MC)) was 4 of 6.
With `COc1ccc(C(O)c2c(CN(C)C)c3ccccc3n2C)cc1` (stereo not given) the survivor count (dose: 200.0 mg/kg/injection, schedule: Q04DX002 (ip), vehicle: other) was 1 of 3 and the survivor count (dose: 400.0 mg/kg/injection, schedule: Q04DX002 (ip), vehicle: other) was 0 of 3.
With `c1cnc(OCCN2CC2)nc1` the survivor count (dose: 100.0 mg/kg/injection, schedule: Q01DX001 (ip), vehicle: carboxymethylcellulose (CMC)) was 4 of 6 and 5 of 6, the survivor count (dose: 200.0 mg/kg/injection, schedule: Q01DX001 (ip), vehicle: carboxymethylcellulose (CMC)) was 0 of 6 and the survivor count [5] was 0 of 6.
With `O=C1/C(=N/O)Cc2ccccc21` the survivor count (dose: 25.0 mg/kg/injection, schedule: Q01DX009 (ip), vehicle: water) was 3 of 6, the survivor count (dose: 50.0 mg/kg/injection, schedule: Q01DX009 (ip), vehicle: water) was 0 of 6 and the survivor count (dose: 100.0 mg/kg/injection, schedule: Q01DX009 (ip), vehicle: water) was 0 of 6. The survivor count (dose: 100.0 mg/kg/injection, schedule: Q04DX003 (ip), vehicle: saline with Tween-80) was 6 of 6, the survivor count (dose: 200.0 mg/kg/injection, schedule: Q01DX009 (ip), vehicle: water) was 0 of 6 and the survivor count (dose: 400.0 mg/kg/injection, schedule: Q01DX009 (ip), vehicle: water) was 0 of 6.
With `CS(=O)(=O)OCCN(CCOS(C)(=O)=O)c1cccc(F)c1` the T/C (dose: 10.0 mg/kg/injection, schedule: Q01DX001 (ip), vehicle: saline) was 125 % of control, the T/C (dose: 40.0 mg/kg/injection, schedule: Q01DX001 (ip), vehicle: saline) was 145 % of control and the survivor count (dose: 178.0 mg/kg/injection, schedule: Q01DX001 (ip), vehicle: saline) was 0 of 6. For the same compound, the survivor count (dose: 267.0 mg/kg/injection, schedule: Q01DX001 (ip), vehicle: saline) was 0 of 6, the T/C [3] was 135 % of control and the survivor count [3] was 0 of 6. The survivor count (dose: 600.0 mg/kg/injection, schedule: Q01DX001 (ip), vehicle: saline) was 0 of 6.
For `CCOc1cc(C=Nc2cccc(C(F)(F)F)c2)ccc1O`, the survivor count (dose: 400.0 mg/kg/injection, schedule: Q01DX009 (ip), vehicle: other) was 2 of 6.
